Earlier results in patent US20230078120A1 (priority 2020, published 2023).
For at least one compound, name, drawing or mass did not settle the structure.

Key:
MERS-CoV = details: Vero E6 cells; cited from earlier work
SARS-CoV = details: Vero E6 cells; cited from earlier work
influenza = details: mouse, in vivo; cited from earlier work

## Cc1nc(Nc2ncc(C(=O)Nc3c(C)cccc3Cl)s2)cc(N2CCN(CCO)CC2)n1 [Dasatinib]
MERS-CoV
  inhibition of MERS-CoV: inhibit
SARS-CoV
  inhibition of SARS-CoV: inhibit

## Cc1ccc(C(=O)Nc2ccc(CN3CCN(C)CC3)c(C(F)(F)F)c2)cc1C#Cc1cnc2cccnn12 [Ponatinib]
influenza
  survival of mice with lethal influenza infection: prolong the survival
